# Data from the supplement of paper PMC5662767.
# Structures can show the parent of a compound that is named as a salt. The list shows a part of the results. Baselines shift from plate to plate; read single values as rough.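 The clonal Drosophila S2 line carries Smoothened with a circularly permuted GFP inserted in its cytoplasmic tail, which fluoresces once Hh-driven phosphorylation opens an inhibitory loop. Per-cell fluorescence was read by flow cytometry, scaled to Hh-stimulated untreated cells. Hits were groups of inhibitors sharing pathway targets that shifted fluorescence consistently, not single compounds.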
# System: Drosophila S2 cl14 SmoIP sensor cells
# Assay: normalized SmoIP GFP fluorescence (untreated unstimulated = 0%, untreated Hh-stimulated = 100%); higher = more Smo activation sensor fluorescence
# Settings: compound concentration: 15 uM, 24 h
# [1] = stimulation: Hh conditioned medium (+Hh)
# [2] = stimulation: mock conditioned medium (-Hh)
Structure (SMILES),normalized SmoIP GFP fluorescence [1] [%],normalized SmoIP GFP fluorescence [2] [%]
O=C(O)Cn1nnc(-c2cc(N3CCC(Oc4cc(F)ccc4Br)CC3)no2)n1,139,0.274
CC(=O)Oc1cc2c(s1)CCN(C(C(=O)C1CC1)c1ccccc1F)C2 (stereo not given) [Prasugrel],123,9
c1ccc2c(c1)CCCC2C1=NCCN1 (stereo not given) [tetrahydrozoline-hcl],113,-0.775
CC(C)C1CCC(C(=O)N[C@H](Cc2ccccc2)C(=O)O)CC1 (stereo not given in full) [Nateglinide(Starlix)],132,-15.4
CCN(CC)CCCC(C)Nc1nc(C)cc(Nc2ccc3nc(C)cc(N)c3c2)n1 (stereo not given),162,2.5
O=C(NOCC1CC1)c1ccc(F)c(F)c1Nc1ccc(I)cc1Cl,160,70.3
CN(NC(=O)CC(=O)NN(C)C(=S)c1ccccc1)C(=S)c1ccccc1 [Elesclomol],171,21
O=C1C(=O)N(Cc2ccc(Cl)c(Cl)c2)c2ccccc21 [apoptosis-activator-2],111,0.0767
C1=C/COCc2cc(ccc2OCCN2CCCC2)Nc2nccc(n2)-c2cccc(c2)COC/1 [pacritinib-sb1518],146,19.2
COc1cc2c(N3CCN(C(=O)Nc4ccc(OC(C)C)cc4)CC3)ncnc2cc1OCCCN1CCCCC1 [Tandutinib-(MLN518)],168,32
CCCCOc1c(C(=O)c2c(F)cc(C)cc2F)c[nH]c2nncc1-2,117,18.5
CC(C)(C)Cn1c(N)nc2ccc(-c3[nH]c(C(C)(C)C)nc3-c3ccc(F)cc3)nc21,154,78.8
CN(C)C(=O)c1cc2cnc(Nc3ccc(N4CCNCC4)cn3)nc2n1C1CCCC1,124,5.45
C[C@@H]1C[C@H]2[C@@H]3CCC4=CC(=O)C=C[C@]4(C)[C@@]3(F)[C@@H](O)C[C@]2(C)[C@@]1(O)C(=O)CO [Dexamethasone],129,2.97
CC1(C)Cc2c(-c3ccccc3)c(-c3ccc(Cl)cc3)c(CC(=O)O)n2C1 [licofelone],137,0.605
OCCn1cc(-c2ccc3c(c2)CC/C3=N\O)c(-c2ccncc2)n1,137,9.32
CCc1c(C(=O)NCCc2ccc(N3CCCCC3)cc2)[nH]c2ccc(Cl)cc12,152,27.1
CC(=O)N[C@@H](CS)C(=O)O [Acetylcysteine],131,2.97

Structure (SMILES),normalized SmoIP GFP fluorescence [1] [%],normalized SmoIP GFP fluorescence [2] [%]
CCN(CC)CC(=O)Nc1c(C)cccc1C [Lidocaine],118,-6.51
COCCOC(=O)C1=C(C)NC(C)=C(C(=O)OC/C=C/c2ccccc2)C1c1cccc([N+](=O)[O-])c1 (stereo not given) [Cilnidipine],118,37.1
COc1cc([C@@H]2c3cc4c(cc3[C@@H](O[C@@H]3O[C@@H]5CO[C@@H](C)O[C@H]5[C@H](O)[C@H]3O)[C@H]3COC(=O)[C@H]23)OCO4)cc(OC)c1OP(=O)(O)O [Etopophos],203,55.3
CNC[C@H](O)c1cccc(O)c1 [Phenylephrine-hydrochloride],119,-8.77
COc1ccccc1OCCNCC(O)COc1cccc2[nH]c3ccccc3c12 (stereo not given) [carvedilol],149,33.4
C=CCn1c(=O)c2cnc(Nc3ccc(N4CCN(C)CC4)cc3)nc2n1-c1cccc(C(C)(C)O)n1,125,11.3
CCCC(=O)OCOC(=O)C1=C(C)NC(C)=C(C(=O)OC)C1c1cccc(Cl)c1Cl (stereo not given) [cleviprex-clevidipine],116,-12.7
C=CC(=O)Nc1cccc(Nc2nc(Nc3ccc(OCCOC)cc3)ncc2F)c1,164,80.5
C[C@@H]1C(=O)O[C@H]2C[C@@]34[C@H]5C[C@@H](C(C)(C)C)[C@]36[C@@H](OC(=O)[C@@H]6O)O[C@@]4(C(=O)O5)[C@]21O [ginkgolide-a],109,-4.58
NC(=O)c1ccc(-c2nc(-c3ccccn3)c(-c3ccc4c(c3)OCO4)[nH]2)cc1,201,23.8
O=c1cc(N2CCOCC2)oc2c(-c3ccccc3)cccc12,170,1.35
COc1ccc(NS(=O)(=O)c2sc3ccc(Cl)cc3c2C)cc1N1CCNCC1,148,38.5
CCOc1cc([C@@H](CS(C)(=O)=O)N2C(=O)c3cccc(NC(C)=O)c3C2=O)ccc1OC,130,-11.2
CO[C@H]1C[C@@H]2CC[C@@H](C)[C@@](O)(O2)C(=O)C(=O)N2CCCC[C@H]2C(=O)O[C@H]([C@H](C)C[C@@H]2CC[C@@H](OP(C)(C)=O)[C@H](OC)C2)CC(=O)[C@H](C)/C=C(\C)[C@@H](O)[C@@H](OC)C(=O)[C@H](C)C[C@H](C)/C=C/C=C/C=C/1C [Deforolimus],60.6,18.3
CN1CCN(C(c2ccccc2)c2ccccc2)CC1 [cyclizine-2hcl],125,-0.151
CCCSc1nc(N[C@@H]2C[C@H]2c2ccc(F)c(F)c2)c2nnn([C@@H]3C[C@H](OCCO)[C@@H](O)[C@H]3O)c2n1 [ticagrelor],134,17.1
CCc1cc(Nc2nccc(-c3c(-c4ccc(OC)c(C(=O)Nc5c(F)cccc5F)c4)nc4ccccn34)n2)c(OC)cc1N1CCC(N2CCN(S(C)(=O)=O)CC2)CC1,211,89.5

# An excerpt from above in order of count of non-hydrogen atoms, low to high:
Structure (SMILES),normalized SmoIP GFP fluorescence [1] [%],normalized SmoIP GFP fluorescence [2] [%]
CNC[C@H](O)c1cccc(O)c1 [Phenylephrine-hydrochloride],119,-8.77
COc1cc([C@@H]2c3cc4c(cc3[C@@H](O[C@@H]3O[C@@H]5CO[C@@H](C)O[C@H]5[C@H](O)[C@H]3O)[C@H]3COC(=O)[C@H]23)OCO4)cc(OC)c1OP(=O)(O)O [Etopophos],203,55.3
CO[C@H]1C[C@@H]2CC[C@@H](C)[C@@](O)(O2)C(=O)C(=O)N2CCCC[C@H]2C(=O)O[C@H]([C@H](C)C[C@@H]2CC[C@@H](OP(C)(C)=O)[C@H](OC)C2)CC(=O)[C@H](C)/C=C(\C)[C@@H](O)[C@@H](OC)C(=O)[C@H](C)C[C@H](C)/C=C/C=C/C=C/1C [Deforolimus],60.6,18.3
